Assay results taken from paper PMC10277729.
These are yes or no findings as the source states them, for the method shown. Binding seen in cells or lysates may run through a third protein. A yes stands for co-enrichment or nearness to the bait. Other partners may have been found. Where a sequence is shown, tags or fusion partners need not be part of it.

By UniProt entry, the sequences of proteins in these tests, tags left out. Residues count along the entry.
UniProt P52948, residues 1-880: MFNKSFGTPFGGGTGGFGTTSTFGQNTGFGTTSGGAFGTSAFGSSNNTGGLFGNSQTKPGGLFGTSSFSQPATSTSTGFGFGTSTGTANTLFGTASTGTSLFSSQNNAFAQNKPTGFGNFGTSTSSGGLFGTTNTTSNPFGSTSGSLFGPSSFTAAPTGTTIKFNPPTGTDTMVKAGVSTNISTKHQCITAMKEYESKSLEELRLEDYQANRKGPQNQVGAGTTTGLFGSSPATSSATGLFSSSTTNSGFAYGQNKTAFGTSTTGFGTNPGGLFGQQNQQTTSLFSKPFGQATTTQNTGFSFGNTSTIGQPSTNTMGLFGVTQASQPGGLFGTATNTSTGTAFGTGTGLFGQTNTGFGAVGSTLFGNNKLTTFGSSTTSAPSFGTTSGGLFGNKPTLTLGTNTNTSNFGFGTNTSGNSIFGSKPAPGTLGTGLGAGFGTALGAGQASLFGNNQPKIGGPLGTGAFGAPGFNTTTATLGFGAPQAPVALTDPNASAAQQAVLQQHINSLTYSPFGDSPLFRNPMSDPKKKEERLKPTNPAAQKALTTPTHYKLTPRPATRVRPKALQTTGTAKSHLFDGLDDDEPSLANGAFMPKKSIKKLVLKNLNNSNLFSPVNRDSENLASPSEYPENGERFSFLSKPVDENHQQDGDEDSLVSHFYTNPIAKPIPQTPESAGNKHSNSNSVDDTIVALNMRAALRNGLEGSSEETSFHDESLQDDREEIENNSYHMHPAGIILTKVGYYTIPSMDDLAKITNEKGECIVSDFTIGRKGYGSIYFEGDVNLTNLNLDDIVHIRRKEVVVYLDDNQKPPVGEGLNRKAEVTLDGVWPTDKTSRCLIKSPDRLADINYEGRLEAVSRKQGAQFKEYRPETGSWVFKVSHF

B1: RAE1 (protein, UniProt P78406 1-368)
chain: MSLFGTTSGFGTSGTSMFGSATTDNHNPMKDIEVTSSPDDSIGCLSFSPPTLPGNFLIAGSWANDVRCWEVQDSGQTIPKAQQMHTGPVLDVCWSDDGSKVFTASCDKTAKMWDLSSNQAIQIAQHDAPVKTIHWIKAPNYSCVMTGSWDKTLKFWDTRSSNPMMVLQLPERCYCADVIYPMAVVATAERGLIVYQLENQPSEFRRIESPLKHQHRCVAIFKDKQNKPTGFALGSIEGRVAIHYINPPNPAKDNFTFKCHRSNGTNTSAPQDIYAVNGIAFHPVHGTLATVGSDGRFSFWDKDARTKLKTSEQLDQPISACCFNHNGNIFAYASSYDWSKGHEFYNPQKKNYIFLRNAAEELKPRNKK
B2: NUP42 (protein, UniProt O15504 1-423)
chain: MAICQFFLQGRCRFGDRCWNEHPGARGAGGGRQQPQQQPSGNNRRGWNTTSQRYSNVIQPSSFSKSTPWGGSRDQEKPYFSSFDSGASTNRKEGFGLSENPFASLSPDEQKDEKKLLEGIVKDMEVWESSGQWMFSVYSPVKKKPNISGFTDISPEELRLEYHNFLTSNNLQSYLNSVQRLINQWRNRVNELKSLNISTKVALLSDVKDGVNQAAPAFGFGSSQAATFMSPGFPVNNSSSDNAQNFSFKTNSGFAAASSGSPAGFGSSPAFGAAASTSSGISTSAPAFGFGKPEVTSAASFSFKSPAASSFGSPGFSGLPASLATGPVRAPVAPAFGGGSSVAGFGSPGSHSHTAFSKPSSDTFGNSSISTSLSASSSIIATDNVLFTPRDKLTVEELEQFQSKKFTLGKIPLKPPPLELLNV

molecular target: T1, FLAG-FAM111B (human) (UniProt Q6SJ93); test: affinity purification with mass spectrometry; FLAG-IP of FLAG-FAM111B (M2 anti-FLAG agarose, eluted with 3xFLAG peptide), eluate digested with trypsin, label-free quantitation against a FLAG control, two biological repeats
T1 sequence: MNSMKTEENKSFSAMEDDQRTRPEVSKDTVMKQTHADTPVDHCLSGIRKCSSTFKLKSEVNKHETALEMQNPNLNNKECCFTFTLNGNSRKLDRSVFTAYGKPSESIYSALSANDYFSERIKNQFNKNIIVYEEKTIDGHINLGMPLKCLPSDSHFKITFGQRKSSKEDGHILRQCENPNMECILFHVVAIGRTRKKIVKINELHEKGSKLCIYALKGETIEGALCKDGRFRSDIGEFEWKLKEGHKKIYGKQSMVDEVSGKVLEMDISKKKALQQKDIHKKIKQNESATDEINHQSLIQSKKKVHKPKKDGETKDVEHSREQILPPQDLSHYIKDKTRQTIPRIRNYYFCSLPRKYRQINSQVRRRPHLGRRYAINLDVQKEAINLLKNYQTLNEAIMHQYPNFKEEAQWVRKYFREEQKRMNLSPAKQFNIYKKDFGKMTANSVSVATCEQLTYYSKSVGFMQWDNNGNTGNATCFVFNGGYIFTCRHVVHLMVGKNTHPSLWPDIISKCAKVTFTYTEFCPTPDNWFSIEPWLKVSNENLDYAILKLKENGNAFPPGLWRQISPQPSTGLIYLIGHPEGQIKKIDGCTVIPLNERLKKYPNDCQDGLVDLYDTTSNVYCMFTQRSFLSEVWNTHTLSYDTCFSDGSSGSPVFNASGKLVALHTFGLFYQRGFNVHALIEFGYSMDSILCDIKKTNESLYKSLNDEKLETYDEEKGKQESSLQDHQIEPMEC

binding, binds:
NUP98 (from UniProt P52948 1-880)
B1
B2
